Results are given in words; binding and its absence hold for the method and conditions named. In cells and extracts the contact can be indirect. Some binding calls cover weakened binding; strength is not graded here.
What was measured:
[1] = molecular target: RUVBL1 in MDA-MB-231-RUVBL1 cells (stably expressed Myc-RUVBL1) (UniProt Q9Y265); test: co-IP; MDA-MB-231-RUVBL1 cell lysate, IP with RUVBL1 antibody, western blot; Fig. 6C after 4 h of IR, compared with IgG
Myc-RUVBL1 = Myc-RUVBL1 (UniProt Q9Y265); test: co-IP; HEK293T cells transfected with Myc-RUVBL1 (in some panels also DTL, HA-Ub, HA-Ub K63 or HA-Ub K63R; in Fig. 6D-F and 7E IR for 4 h before collection); lysate incubated with Myc antibody, western blot
[2] = molecular target: RUVBL1 in MDA-MB-231-RR cells (human (endogenous in MDA-MB-231-RR)) (UniProt Q9Y265); test: co-IP; MDA-MB-231-RR cells transfected with shDTL (IR for 4 h before collection) or with Flag-DTL, HA-Ub, HA-Ub K63 or HA-Ub K63R; lysate incubated with RUVBL1 antibody, western blot

Sequences of proteins named here, by UniProt entry; tags and fusion partners are left off.
UniProt Q9Y265: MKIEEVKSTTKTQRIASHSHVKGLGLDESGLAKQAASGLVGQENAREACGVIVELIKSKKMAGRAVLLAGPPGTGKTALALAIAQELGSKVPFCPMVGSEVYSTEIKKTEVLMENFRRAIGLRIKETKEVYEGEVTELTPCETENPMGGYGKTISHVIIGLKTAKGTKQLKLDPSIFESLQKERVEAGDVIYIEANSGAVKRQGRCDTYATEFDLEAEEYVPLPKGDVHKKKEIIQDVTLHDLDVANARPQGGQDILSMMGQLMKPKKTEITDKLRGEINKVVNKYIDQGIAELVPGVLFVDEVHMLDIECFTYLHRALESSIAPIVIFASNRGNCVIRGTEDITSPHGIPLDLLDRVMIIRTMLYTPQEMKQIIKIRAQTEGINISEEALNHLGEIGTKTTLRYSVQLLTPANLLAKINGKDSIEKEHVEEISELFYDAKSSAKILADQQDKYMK
UniProt Q9NZJ0: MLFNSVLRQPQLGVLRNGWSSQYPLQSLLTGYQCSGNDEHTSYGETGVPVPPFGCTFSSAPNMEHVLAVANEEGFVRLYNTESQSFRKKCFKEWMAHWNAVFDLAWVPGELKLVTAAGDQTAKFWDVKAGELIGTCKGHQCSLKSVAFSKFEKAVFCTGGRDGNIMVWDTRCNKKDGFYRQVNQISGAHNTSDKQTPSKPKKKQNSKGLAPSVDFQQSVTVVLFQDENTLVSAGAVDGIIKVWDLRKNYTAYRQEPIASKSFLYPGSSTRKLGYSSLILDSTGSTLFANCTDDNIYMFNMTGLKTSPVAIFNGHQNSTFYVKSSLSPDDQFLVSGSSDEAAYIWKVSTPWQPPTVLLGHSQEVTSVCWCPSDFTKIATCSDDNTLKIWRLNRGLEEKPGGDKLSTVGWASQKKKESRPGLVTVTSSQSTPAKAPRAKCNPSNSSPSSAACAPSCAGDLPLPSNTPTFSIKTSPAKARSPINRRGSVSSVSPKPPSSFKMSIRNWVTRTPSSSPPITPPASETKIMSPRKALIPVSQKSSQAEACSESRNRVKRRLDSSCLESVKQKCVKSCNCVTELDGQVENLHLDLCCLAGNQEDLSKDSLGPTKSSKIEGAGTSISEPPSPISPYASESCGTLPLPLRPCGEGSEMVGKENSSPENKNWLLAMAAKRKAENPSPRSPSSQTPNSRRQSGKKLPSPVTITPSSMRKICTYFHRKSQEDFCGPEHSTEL
UniProt P40763: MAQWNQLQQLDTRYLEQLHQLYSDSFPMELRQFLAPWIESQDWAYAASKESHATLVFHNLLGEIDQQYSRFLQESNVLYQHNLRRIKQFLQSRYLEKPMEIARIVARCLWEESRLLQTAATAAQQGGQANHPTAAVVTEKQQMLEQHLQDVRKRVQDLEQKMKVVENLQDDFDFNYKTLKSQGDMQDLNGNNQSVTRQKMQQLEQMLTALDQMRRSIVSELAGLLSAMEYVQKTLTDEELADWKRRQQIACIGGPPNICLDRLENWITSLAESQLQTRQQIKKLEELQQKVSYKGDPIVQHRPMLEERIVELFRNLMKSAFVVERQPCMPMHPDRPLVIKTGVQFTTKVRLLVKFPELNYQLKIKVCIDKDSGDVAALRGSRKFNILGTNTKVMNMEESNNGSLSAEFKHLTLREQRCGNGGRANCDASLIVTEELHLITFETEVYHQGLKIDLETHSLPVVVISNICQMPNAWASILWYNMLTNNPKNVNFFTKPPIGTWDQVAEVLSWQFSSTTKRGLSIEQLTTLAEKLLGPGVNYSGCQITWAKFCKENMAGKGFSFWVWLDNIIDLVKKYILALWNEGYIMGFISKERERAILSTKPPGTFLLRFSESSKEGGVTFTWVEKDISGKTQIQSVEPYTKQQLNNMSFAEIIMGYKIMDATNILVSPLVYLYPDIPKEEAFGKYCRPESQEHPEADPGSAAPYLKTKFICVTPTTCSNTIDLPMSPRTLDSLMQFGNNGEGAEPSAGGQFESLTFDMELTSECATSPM
UniProt P35222: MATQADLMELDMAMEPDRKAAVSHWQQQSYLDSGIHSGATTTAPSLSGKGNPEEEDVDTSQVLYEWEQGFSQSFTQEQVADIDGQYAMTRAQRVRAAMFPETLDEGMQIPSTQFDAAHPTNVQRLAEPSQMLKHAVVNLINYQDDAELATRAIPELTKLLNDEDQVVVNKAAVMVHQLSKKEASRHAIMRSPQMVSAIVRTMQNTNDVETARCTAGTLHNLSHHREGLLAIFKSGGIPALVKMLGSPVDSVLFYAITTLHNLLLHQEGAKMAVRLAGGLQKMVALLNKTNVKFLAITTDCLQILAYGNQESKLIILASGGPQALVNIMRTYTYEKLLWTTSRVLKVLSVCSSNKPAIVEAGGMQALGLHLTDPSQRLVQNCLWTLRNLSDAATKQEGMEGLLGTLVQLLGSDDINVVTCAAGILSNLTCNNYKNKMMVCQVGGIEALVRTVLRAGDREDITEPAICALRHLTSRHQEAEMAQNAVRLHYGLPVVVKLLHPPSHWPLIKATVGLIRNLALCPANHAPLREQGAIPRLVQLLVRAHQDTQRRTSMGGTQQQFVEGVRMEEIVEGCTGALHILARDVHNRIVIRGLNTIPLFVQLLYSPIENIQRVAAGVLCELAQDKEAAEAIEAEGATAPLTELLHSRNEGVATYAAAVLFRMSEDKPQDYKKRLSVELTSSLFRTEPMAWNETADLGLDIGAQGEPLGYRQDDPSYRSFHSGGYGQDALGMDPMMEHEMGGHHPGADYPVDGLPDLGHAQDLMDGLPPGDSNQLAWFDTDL
UniProt Q92993: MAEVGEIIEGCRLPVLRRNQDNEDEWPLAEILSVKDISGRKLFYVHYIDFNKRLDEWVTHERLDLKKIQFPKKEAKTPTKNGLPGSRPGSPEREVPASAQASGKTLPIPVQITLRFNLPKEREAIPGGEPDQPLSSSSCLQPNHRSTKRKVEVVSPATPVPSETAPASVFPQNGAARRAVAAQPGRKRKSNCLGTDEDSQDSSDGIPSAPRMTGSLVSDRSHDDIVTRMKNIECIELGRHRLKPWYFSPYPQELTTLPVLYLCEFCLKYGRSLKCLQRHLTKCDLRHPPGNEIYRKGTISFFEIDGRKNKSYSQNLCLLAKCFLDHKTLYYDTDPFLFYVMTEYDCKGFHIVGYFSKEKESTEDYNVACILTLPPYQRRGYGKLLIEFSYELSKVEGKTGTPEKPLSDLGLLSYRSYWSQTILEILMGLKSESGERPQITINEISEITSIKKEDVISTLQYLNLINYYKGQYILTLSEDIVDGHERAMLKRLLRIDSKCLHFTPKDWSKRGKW
UniProt P01106: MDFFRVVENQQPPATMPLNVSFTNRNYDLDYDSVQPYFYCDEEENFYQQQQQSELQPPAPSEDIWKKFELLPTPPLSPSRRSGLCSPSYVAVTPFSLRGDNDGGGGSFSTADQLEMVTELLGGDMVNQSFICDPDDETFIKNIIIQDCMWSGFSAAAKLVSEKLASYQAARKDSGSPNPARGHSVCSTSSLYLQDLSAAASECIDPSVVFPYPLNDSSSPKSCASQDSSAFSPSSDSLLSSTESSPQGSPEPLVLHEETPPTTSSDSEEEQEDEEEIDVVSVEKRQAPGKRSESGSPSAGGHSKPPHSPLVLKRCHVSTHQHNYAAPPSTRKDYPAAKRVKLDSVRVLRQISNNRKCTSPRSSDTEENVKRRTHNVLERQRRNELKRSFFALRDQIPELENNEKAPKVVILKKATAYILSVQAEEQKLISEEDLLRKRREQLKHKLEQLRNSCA

| binding [1] | binding (Myc-RUVBL1) | binding [2] | Substance |
| --- | --- | --- | --- |
| binds | binds |  | DTL (from UniProt Q9NZJ0 1-730) |
|  | binds |  | STAT3 (from UniProt P40763 1-770) |
|  | binds | binds | β-catenin (from UniProt P35222 1-781) |

Continued, substance first:

| Substance | binding [1] | binding (Myc-RUVBL1) | binding [2] |
| --- | --- | --- | --- |
| Tat-interacting protein 60 (TIP60) (from UniProt Q92993 1-513) |  | binds | binds |
| c-Myc (from UniProt P01106 1-454) |  | binds |  |
